In PubChem BioAssay AID493014 (National Center for Advancing Translational Sciences (NCATS), 2011):
Some of the results follow. The main result of the screen is listed elsewhere. These columns were measured beside it and carry no call. Most of these compounds were active or inconclusive in the main read-out, so they are no random draw. The note in brackets gives the kind of curve behind each potency; many fits are weak.

Assay: qHTS Assay to Find Inhibitors of Chronic Active B-Cell Receptor Signaling
Conditions: ABC-DLBCL IkBa-CBG/CBR reporter, luminescence ratio (green luciferase fused to IkBa over red control in TMD8 lymphoma cells), 4 h
Summary of the method: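 Doxycycline induced both beetle luciferases in TMD8 lymphoma cells; IKK-driven degradation limits the IkappaBalpha-fused green signal, while red luminescence normalises for cell number and nonspecific effects. Compounds tested up to 46 uM, 4 hrs.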

[1] = measured here: CBR red luminescence, cell number
[2] = measured here: IkBa-CBG green luminescence

Q: For `Cc1cccc(NC(=O)C23CCC(C)(C2Br)C3(C)C)c1` (centres undefined), which AC50 [1] is on record?
A: 6.31 µM [falling, single point]

Q: With `CC(=O)Oc1ccc(C(=O)O)cc1OC(C)=O` as the molecule, how does the AC50 [1] read?
A: 35.5 µM [rising, partial curve, poor fit]

Q: For `COc1ccc(NC(=O)/C(C#N)=C/c2ccc(-c3ccc(Cl)c(C(=O)O)c3)o2)cc1`, which AC50 [1] is on record?
A: 1.12 µM [falling, partial curve, poor fit]

Q: With `N#Cc1ccc2c(c1)C[C@]1(c3ccsc3)Oc3c(c(=O)oc4ccccc34)C2O1` as the molecule, how does the AC50 [1] read?
A: 3.98 µM [falling, single point]

Q: For `COc1cc(C(=O)NCc2ccc(C)cc2)ccc1OC(F)F`, which AC50 [1] is on record?
A: 2.91 µM [rising, partial curve, poor fit]

Q: For `CCCOC1CCCN(C(=O)c2ccc(OC3CCN(C(=O)CCOC)CC3)cc2)C1` (centres undefined), which AC50 [1] is on record?
A: 35.5 µM [rising, single point]

Q: With `CCN(C(=O)Cc1c(C(=O)O)n(CC)c2ccccc12)c1ccccc1C` as the molecule, how does the AC50 [1] read?
A: 1.58 µM [falling, partial curve]

Q: For `CC(C)C1Cc2c(C#N)c(N)n(C)c(=S)c2CO1` (centres undefined), which AC50 [1] is on record?
A: 10 µM [rising, partial curve]

Q: For `Cc1cc(NC(=S)Nc2cccnc2)ccc1Br`, which AC50 [1] is on record?
A: 11.2 µM [rising, partial curve]

Q: For `O=C(CSc1nnnn1CCCO)Nc1ccc2c(c1)OCO2`, which AC50 [1] is on record?
A: 35.5 µM [rising, single point]

Q: With `CCCCC(=O)NC(=S)NNC(=O)CC#N` as the molecule, how does the AC50 [1] read?
A: 4.61 µM [falling, full curve, poor fit]

Q: For `Cc1ccccc1-c1ccc(Nc2ccc(C(=O)N3CCOCC3)cc2)nn1`, which AC50 [1] is on record?
A: 11.2 µM [falling, partial curve]

Q: Which AC50 [1] does the source give for `O=C(c1cc(-c2cccc(Cl)c2)on1)N1CCc2ccccc2C1` here?
A: 2.51 µM [rising, full curve]

Q: For `CCN(CC(=O)Nc1ccc(NC(C)=O)cc1)C(=O)c1cccc2ccccc12`, which AC50 [1] is on record?
A: 29.1 µM [rising, partial curve, poor fit]

Q: With `O=C(Nc1ccc(F)cc1)c1cn(-c2ccccc2)nc1-c1ccncc1` as the molecule, how does the AC50 [1] read?
A: 0.411 µM [falling, full curve, poor fit]

Q: And the AC50 [2]?
A: 14.6 µM [rising, partial curve, poor fit]

Q: For `Cc1ccc(C(=O)NC2CCN(CC(=O)Nc3ccccc3Cl)CC2)cc1`, which AC50 [1] is on record?
A: 7.94 µM [rising, partial curve, poor fit]

Q: Which AC50 [1] does the source give for `Cc1nn(Cc2ccc(C(=O)O)o2)c(C)c1[N+](=O)[O-]` here?
A: 6.31 µM [rising, single point]

Q: With `Cc1ccccc1-c1nnc(SCC(=O)c2c(N)n(C3CC3)c(=O)[nH]c2=O)o1` as the molecule, how does the AC50 [1] read?
A: 6.51 µM [rising, single point]

Q: With `O=C(Cn1nc(-c2nn(CC(=O)c3ccccc3)c3[n+]2CCCCC3)[n+]2c1CCCCC2)c1ccccc1` as the molecule, how does the AC50 [1] read?
A: 0.0891 µM [rising, full curve, poor fit]

Q: Which AC50 [1] does the source give for `O=C(Nc1ccccc1)c1ccc(CSc2ccccn2)cc1` here?
A: 17.8 µM [falling, single point]

Q: Which AC50 [1] does the source give for `O=C(Nc1ccccc1)C1=C[C@@H](c2ccc(Br)cc2)C[C@@H](OCCCCO)O1` here?
A: 11.2 µM [falling, partial curve, poor fit]

Q: Which AC50 [1] does the source give for `CN(c1ccccc1)S(=O)(=O)c1ccc(C(=O)Nc2nccs2)cc1` here?
A: 0.731 µM [falling, partial curve, poor fit]

Q: For `Cc1ccc2cc3c(N)c(C(=O)N4CCOCC4)sc3nc2c1`, which AC50 [1] is on record?
A: 10 µM [falling, partial curve, poor fit]

Q: With `O=C(O)/C=C/C(=O)N(CC1CCCO1)C1CC(=O)N(c2c(Cl)cccc2Cl)C1=O` (centres undefined) as the molecule, how does the AC50 [1] read?
A: 17.8 µM [falling, partial curve]

Q: Which AC50 [1] does the source give for `CCN(CC(=O)NCc1ccc(Cl)cc1)C(=O)Cc1ccccc1[N+](=O)[O-]` here?
A: 0.398 µM [falling, full curve]

Q: Which AC50 [1] does the source give for `COc1ccc2[nH]c3c(=O)n(CCCCC(=O)N4CCCC4)c(=S)[nH]c3c2c1` here?
A: 7.08 µM [falling, partial curve, poor fit]

Q: Which AC50 [1] does the source give for `COc1ccc(N2CCN(CC(=O)Nc3nnc(-c4ccccc4)s3)CC2)cc1` here?
A: 11.6 µM [falling, partial curve]

Q: For `COc1cc(-c2nn3c(C4CCCCC4)nnc3s2)cc(OC)c1OC`, which AC50 [1] is on record?
A: 35.5 µM [rising, single point]

Q: For `O=C(CCN1C(=O)/C(=C/c2cccc(Br)c2)SC1=S)Nc1cccnc1`, which AC50 [1] is on record?
A: 10 µM [falling, partial curve]

Q: Which AC50 [1] does the source give for `O/N=C/c1ccn(-c2ccc(Br)cc2)c1` here?
A: 0.794 µM [rising, full curve, poor fit]

Q: For `Cc1cc(C)c2nc(NC(=O)CN3C(=O)NC4(CCCC4)C3=O)sc2c1`, which AC50 [1] is on record?
A: 20.6 µM [falling, partial curve, poor fit]

Q: With `C=CCn1c(SCC(=O)Nc2c(C)n(C)n(-c3ccccc3)c2=O)nc2sc(C)c(C)c2c1=O` as the molecule, how does the AC50 [2] read?
A: 18.4 µM [falling, partial curve, poor fit]

Q: For `N/C(=N\OC(=O)c1ccc2ccccc2c1)c1cccc([N+](=O)[O-])c1`, which AC50 [1] is on record?
A: 3.26 µM [rising, full curve, poor fit]

Q: Which AC50 [1] does the source give for `Nc1ccc(C(=O)c2cccs2)cc1` here?
A: 2.59 µM [rising, full curve, poor fit]

Q: Which AC50 [1] does the source give for `COc1ccc(N2CC(C(=O)O)CC2=O)cc1` (centres undefined) here?
A: 23.1 µM [rising, partial curve, poor fit]

Q: Which AC50 [1] does the source give for `COc1cccc(-c2cc3nc(-c4ccccc4)cc(N4CCCC(O)C4)n3n2)c1` (centres undefined) here?
A: 17.8 µM [falling, partial curve, poor fit]

Q: With `CC(C)(C)NC(=O)COC(=O)c1ccccc1OCC(=O)Nc1ccc(Br)cc1` as the molecule, how does the AC50 [1] read?
A: 20.6 µM [falling, single point]

Q: For `CCc1cc2c(=O)n(Cc3ccco3)c(SCC(=O)N3CCCc4ccccc43)nc2s1`, which AC50 [1] is on record?
A: 7.94 µM [falling, partial curve]

Q: With `CCCCNC(=O)c1cc2c(=O)n3cccc(C)c3nc2n1C` as the molecule, how does the AC50 [1] read?
A: 32.6 µM [rising, single point]

Q: For `O=C(Nc1ccc(N2CCOCC2)cc1)c1cccc2c(Br)cccc12`, which AC50 [1] is on record?
A: 10 µM [rising, single point]

Q: Which AC50 [1] does the source give for `COc1ccccc1OCCn1cc(/C=C(\C#N)C(=O)NCc2cccs2)c2ccccc21` here?
A: 29.1 µM [rising, single point]

Q: With `CC1(C)OC(=O)C(=NNc2ccccc2[N+](=O)[O-])C(=O)O1` as the molecule, how does the AC50 [1] read?
A: 15.8 µM [falling, partial curve, poor fit]

Q: For `O=C(/C=C/c1ccnc2ccccc12)c1cccs1`, which AC50 [1] is on record?
A: 8.91 µM [falling, partial curve]

Q: With `CN1CCN(c2ccc(CNC(=O)c3cc4ccccc4o3)cc2)CC1` as the molecule, how does the AC50 [1] read?
A: 2.24 µM [falling, full curve]

Q: With `O=c1c2[nH]cnc2n(-c2cccc(Br)c2)c(=O)n1Cc1ccccc1` as the molecule, how does the AC50 [1] read?
A: 0.1 µM [rising, full curve, poor fit]

Q: Which AC50 [1] does the source give for `COc1ccccc1CCC(=O)Nc1ccc2c(c1)CN(CCCn1cccn1)CC2` here?
A: 0.126 µM [falling, full curve, poor fit]

Q: Which AC50 [1] does the source give for `O=S(=O)(c1ccccc1)N1CCCC1c1nc2ccccc2s1` (centres undefined) here?
A: 3.16 µM [falling, partial curve, poor fit]

Q: With `O=C(O)c1ccc(Nc2ncnc3ccccc23)cc1` as the molecule, how does the AC50 [1] read?
A: 7.94 µM [falling, partial curve]

Q: With `COc1ccccc1NC(=S)NC(NC(=O)C(C)C)C(Cl)(Cl)Cl` (centres undefined) as the molecule, how does the AC50 [1] read?
A: 35.5 µM [falling, single point]

Q: Which AC50 [1] does the source give for `Cc1ccc2c(c1)[C@H]1[C@H](CO2)[C@H](c2ccccc2)[C@]2(C)C(=O)N(Cc3ccco3)CC(=O)N12` here?
A: 23.1 µM [falling, single point]

Q: With `COc1ccc(S(=O)(=O)N(CC(=O)NCc2ccco2)C2CCCCC2)cc1OC` as the molecule, how does the AC50 [1] read?
A: 35.5 µM [falling, single point]

Q: For `O=C(/C=C/c1ccc2c(c1)OCO2)NCCSCc1ccc(Cl)cc1Cl`, which AC50 [1] is on record?
A: 35.5 µM [falling, single point]

Q: For `Cc1nnnn1/C(=C\c1ccccc1)C(=O)OCC(=O)N1CC2(C)CC1CC(C)(C)C2` (centres undefined), which AC50 [1] is on record?
A: 1.46 µM [falling, partial curve, poor fit]

Q: With `O=C(CCc1ccccc1)NNC(=O)c1ccccn1` as the molecule, how does the AC50 [1] read?
A: 35.5 µM [falling, single point]

Q: Which AC50 [1] does the source give for `COc1cc(/C=N/NC(=O)C(=O)Nc2ccccn2)ccc1O` here?
A: 23.1 µM [falling, single point]

Q: Which AC50 [1] does the source give for `CCn1c(SCC(=O)Nc2nc(-c3ccc(C)cc3)cs2)nnc1-c1ccccc1O` here?
A: 0.0731 µM [falling, partial curve, poor fit]

Q: With `COc1cccc(/C=N/NC(=O)CC(=O)NCCc2ccc(OC)c(OC)c2)c1` as the molecule, how does the AC50 [1] read?
A: 0.164 µM [rising, full curve, poor fit]

Q: For `C/C(Cn1nnc([N+](=O)[O-])n1)=N\NC(=O)c1cccc(Cl)c1`, which AC50 [1] is on record?
A: 11.2 µM [falling, partial curve]

Q: For `CCc1cccc(NC(=O)CN(C)C2=NS(=O)(=O)c3ccccc32)c1`, which AC50 [1] is on record?
A: 29.1 µM [rising, single point]

Q: With `CCOC(=O)C1CCN(S(=O)(=O)c2ccc3c(c2)NC(=O)C(C)S3)CC1` (centres undefined) as the molecule, how does the AC50 [1] read?
A: 28.2 µM [falling, single point]

Q: For `NC1=NC(=O)S/C1=C\c1ccc(O)cc1`, which AC50 [1] is on record?
A: 20.6 µM [falling, single point]

Q: Which AC50 [1] does the source give for `CCCN(CCC)c1ncnc2c1cnn2-c1ccc(OC)cc1` here?
A: 6.51 µM [rising, single point]

Q: Which AC50 [1] does the source give for `O=C(Nc1c2c(nn1-c1ccc(Cl)cc1)CS(=O)(=O)C2)c1cccc(Cl)c1` here?
A: 11.2 µM [falling, partial curve]
